In publication PMC10864358, “Structural and mechanistic characterization of bifunctional heparan sulfate N-deacetylase-N-sulfotransferase 1” (Nature Communications, 2024):
These are yes or no findings as the source states them, for the method shown.

Target: solubilized recombinant NDST1 (residues 79-882), bifunctional heparan sulfate N-deacetylase-N-sulfotransferase 1 (human) (UniProt P52848)
Assay: cryo-EM structure; NDST1-nAb complexes isolated by SEC, 0.4-0.6 mg/mL in 50 mM Tris-HCl pH 7.5 with 5 mM PAP and 15 mM MgCl2; NDST1 alone classified from the NDST1-nAb13 grid, on which a large proportion of complexes had dissociated; both purified

B1: solubilized recombinant NDST1 (residues 79-882), bifunctional heparan sulfate N-deacetylase-N-sulfotransferase 1 (enzyme, UniProt P52848 79-882)
chain: SRTDPLVLVFVESLYSQLGQEVVAILESSRFKYRTEIAPGKGDMPTLTDKGRGRFALIIYENILKYVNLDAWNRELLDKYCVAYGVGIIGFFKANENSLLSAQLKGFPLFLHSNLGLKDCSINPKSPLLYVTRPSEVEKGVLPGEDWTVFQSNHSTYEPVLLAKTRSSESIPHLGADAGLHAALHATVVQDLGLHDGIQRVLFGNNLNFWLHKLVFVDAVAFLTGKRLSLPLDRYILVDIDDIFVGKEGTRMKVEDVKALFDTQNELRAHIPNFTFNLGYSGKFFHTGTNAEDAGDDLLLSYVKEFWWFPHMWSHMQPHLFHNQSVLAEQMALNKKFAVEHGIPTDMGYAVAPHHSGVYPVHVQLYEAWKQVWSIRVTSTEEYPHLKPARYRRGFIHNGIMVLPRQTCGLFTHTIFYNEYPGGSSELDKIINGGELFLTVLLNPISIFMTHLSNYGNDRLGLYTFKHLVRFLHSWTNLRLQTLPPVQLAQKYFQIFSEEKDPLWQDPCEDKRHKDIWSKEKTCDRFPKLLIIGPQKTGTTALYLFLGMHPDLSSNYPSSETFEEIQFFNGHNYHKGIDWYMEFFPIPSNTTSDFYFEKSANYFDSEVAPRRAAALLPKAKVLTILINPADRAYSWYQHQRAHDDPVALKYTFHEVITAGSDASSKLRALQNRCLVPGWYATHIERWLSAYHANQILVLDGKLLRTEPAKVMDMVQKFLGVTNTIDYHKTLAFDPKKGFWCQLLEGGKTKCLGKSKGRKYPEMDLDSRAFLKDYYRDHNIELSKLLYKMGQTLPTWLREDLQNTR
- binding: no binding
